# Where “and” joins values, the source holds several entries; their conditions need not be identical. Equal entries are not always repeated. The whole screen tested about 390,000 compounds, of which about 4,000 (1%) were called active. This list was built around the results that the source calls inconclusive (neither active nor inactive); the mix of calls is not that of the screen. Calls come from the whole dose curve; as a rule, active = well fitted inhibition curve with a large enough effect; inconclusive = small, poorly fitted or top-dose-only effect, or another doubt; inactive = no such curve, though single readings can be large or run the other way. A potency beside an inconclusive call is a rough fit, not a confirmed value.
# Amino acid sequences for entries named in this document (tags omitted). A change or cut given only in a name is not applied to a line headed by its entry.
# UniProt Q9UNA4: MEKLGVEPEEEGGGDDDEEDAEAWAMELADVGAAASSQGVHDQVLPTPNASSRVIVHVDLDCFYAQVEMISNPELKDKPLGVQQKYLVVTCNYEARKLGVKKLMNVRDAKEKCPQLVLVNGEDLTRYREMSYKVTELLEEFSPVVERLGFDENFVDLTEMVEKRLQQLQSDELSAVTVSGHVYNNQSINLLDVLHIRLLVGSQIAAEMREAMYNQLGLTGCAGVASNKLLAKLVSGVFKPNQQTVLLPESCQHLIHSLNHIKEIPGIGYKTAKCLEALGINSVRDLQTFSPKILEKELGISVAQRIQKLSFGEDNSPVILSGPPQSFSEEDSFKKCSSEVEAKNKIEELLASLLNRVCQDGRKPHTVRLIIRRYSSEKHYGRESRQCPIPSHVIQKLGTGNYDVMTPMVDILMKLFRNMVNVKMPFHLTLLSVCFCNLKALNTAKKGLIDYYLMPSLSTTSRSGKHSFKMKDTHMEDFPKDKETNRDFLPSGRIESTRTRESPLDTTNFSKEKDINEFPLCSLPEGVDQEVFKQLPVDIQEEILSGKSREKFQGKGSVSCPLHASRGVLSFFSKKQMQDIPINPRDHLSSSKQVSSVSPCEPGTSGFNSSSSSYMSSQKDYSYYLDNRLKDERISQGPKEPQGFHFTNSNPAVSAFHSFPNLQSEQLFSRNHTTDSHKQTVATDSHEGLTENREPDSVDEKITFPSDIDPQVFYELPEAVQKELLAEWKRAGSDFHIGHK
# Target: DNA polymerase iota (Homo sapiens) (UniProt Q9UNA4)
# Assay: qHTS for Inhibitors of Polymerase Iota
# Conditions: Pol iota fluorescent replication assay, 10 min; series mostly up to 115 µM; activity, negative = inhibition: at the top concentration
# Summary of the method: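 Fluorescent replication assay read twice, at 0 min and 10 min after adding 50 nM (final) substrate. Enzyme (10 nM) and compounds were first incubated 15 min at room temperature; enzyme-free buffer wells were negative controls.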
# Potency is the fitted concentration of half-maximal effect.
SMILES,Potency,"activity, negative = inhibition"
Cc1ccc(N(CC(=O)N/N=C/c2ccco2)S(=O)(=O)c2ccccc2)cc1,"inconclusive: 25.1 µM [inhibitor, full curve]",
O=C(CSc1ncnc2ccccc12)NCc1ccco1,"inconclusive: 28.2 µM [inhibitor, partial curve]",
CSc1ccc(CCNC(=O)Cn2ncc3c(=O)oc4ccc(C)cc4c32)cc1,,inactive: 30.1%
CCCCc1nnc(NC(=O)Cc2ccc(S(=O)(=O)N3CCOCC3)s2)s1,"inconclusive: 39.8 µM [inhibitor, single point]",
O=C(OCC(=O)N1CCc2ccccc21)c1ccc([N+](=O)[O-])o1,"inconclusive: 50.1 µM [inhibitor, partial curve, poor fit]",
CC(C)c1cnc2c(c1SCc1cccc(C(F)(F)F)c1)c(=O)n(C)c(=O)n2C,,inactive: -2.75%
CC(C)CCNC(=O)NC(=O)CSc1ncccn1,,inactive: 13.3%
c1ccc(C2CC(c3cccs3)n3nnnc3N2)cc1 (stereo not drawn),"inconclusive: 28.2 µM [inhibitor, single point]",
CC/C(C)=N/Nc1nc2c(c(=O)[nH]c(=O)n2C)n1Cc1ccccc1,active: 15.8 µM,
CC1CCN(Cc2cc(=O)oc3cc(O)c(Cl)cc23)CC1,"inconclusive: 44.7 µM [inhibitor, single point]",
CCCCc1nnc(NC(=O)CSc2nc(=O)cc(N)n2-c2ccccc2)s1,"inconclusive: 79.4 µM [inhibitor, single point]",
Cc1cccc(NC(=S)NC(=O)/C=C/c2ccco2)c1,active: 20 µM,
CCn1cc(C(=O)NCCCN2CCCCCC2)c(=O)c2cc(S(=O)(=O)N3CCc4ccccc4C3)ccc21,"inconclusive: 89.1 µM [inhibitor, single point]",
Cc1ccc(S(=O)(=O)c2c(N)n(/N=C/c3ccco3)c3nc4ccccc4nc23)cc1C,"inconclusive: 17.8 µM [inhibitor, single point]",
CSc1nc(C(=O)N2CCCC(N3CCN(c4ccccc4C)CC3)C2)cs1 (stereo not drawn),,inactive: 12.9%
CN(/N=C/c1cccnc1)C1=NS(=O)(=O)c2ccccc21,"inconclusive: 22.4 µM [inhibitor, partial curve, poor fit]",
Cc1cc(C(=O)NCC(=O)OCC(=O)N(C)C2CCCCC2)ccc1[N+](=O)[O-],"inconclusive: 89.1 µM [inhibitor, single point]",
CCOc1ccc(/C=C2/SC(=O)NC2=S)cc1,active: 89.1 µM,
Cc1ccc2nc(SCC(=O)NCc3ccco3)[nH]c2c1,"inconclusive: 28.2 µM [inhibitor, full curve]",
Cc1ccc2c(c1)c1c(c(=O)n(-c3ccccc3C)c(=O)n1CC(=O)c1ccc(Cl)cc1)n2C,,inactive: 31.1%
COCCCn1c(=O)/c(=C\c2cccc(OC)c2OC)s/c1=C(/C#N)C(=O)Nc1ccc(C(=O)O)cc1,"inconclusive: 79.4 µM [inhibitor, partial curve]",
S=C(NCCc1ccccc1)N1CCN(C(c2ccccc2)c2ccccc2)CC1,,inactive: -5.62%

SMILES,Potency,"activity, negative = inhibition"
CN1CCCC1CCNc1ccc2sc3ccccc3c(=O)c2c1 (stereo not drawn),"inconclusive: 12.6 µM [inhibitor, full curve, poor fit]",
Cc1cc(-c2ccc3c(c2)COc2c4ccccc4nn2-3)on1,"inconclusive: 22.4 µM [inhibitor, full curve, poor fit]",
O=S(=O)(c1ccc2nc(Nc3ccccc3)ccc2c1)N1CCCCC1,"inconclusive: 3.98 µM [inhibitor, partial curve, poor fit]",
O=S(=O)(c1ccc(Cl)cc1)c1nnn2c1nc(NC1CCCCC1)c1sccc12,,inactive: 5.55%
COc1cccc(N2CCN(C(=O)c3ccc(=O)oc3)CC2C)c1 (stereo not drawn),"inconclusive: 10 µM [inhibitor, full curve, poor fit]",
CCOC(=O)[C@H](CCc1ccccc1)N[C@@H](C)C(=O)N1CCC[C@H]1C(=O)O,"inactive and inconclusive: 89.1 µM [inhibitor, single point]",
COc1ccc(CCNC(=O)c2cc(=O)c3cc(C)ccc3o2)cc1,"inconclusive: 89.1 µM [inhibitor, single point]",
O=C(Nc1nc(-c2ccco2)c(-c2ccco2)s1)c1ccco1,"inconclusive: 14.1 µM [inhibitor, full curve, poor fit]",
CCC(c1nnnn1C1CCCC1)N1CCN(c2cccc(OC)c2)CC1 (stereo not drawn),"inconclusive: 14.1 µM [inhibitor, partial curve, poor fit]",
CC1CN(Cc2ccc(C#N)cc2Cl)CC(C)O1 (stereo not drawn),"inconclusive: 25.1 µM [inhibitor, partial curve, poor fit]",
CC(C(=O)N1c2ccccc2CCc2ccccc21)n1nnc(-c2ccc(N(C)C)cc2)n1 (stereo not drawn),"inconclusive: 39.8 µM [inhibitor, single point]",
COc1ccc(/C=N\Nc2ccc([N+](=O)[O-])cc2[N+](=O)[O-])c(C(=O)O)c1OC,"inconclusive: 70.8 µM [inhibitor, partial curve]",
O=C(Cn1cnc2c(nnn2-c2ccc(F)cc2)c1=O)N1CCCc2ccccc21,"inconclusive: 89.1 µM [inhibitor, single point]",
Clc1ccc2c(ccc[n+]2CCC2CCCCC2)c1,"inconclusive: 89.1 µM [inhibitor, single point]",
Cc1nn2cc(-c3ccccc3)nc2[nH]c1=O,"inconclusive: 3.16 µM [inhibitor, partial curve, poor fit]",
Cc1c(O)nc(SCC(=O)Nc2ccc3c4c(cccc24)CC3)n(-c2ccccc2)c1=O,,inactive: 60.9%
CCOc1ccc(S(=O)(=O)N2CCOCC2)cc1NC(=O)C1CSC2(C)CCC(=O)N12 (stereo not drawn),"inconclusive: 39.8 µM [inhibitor, partial curve]",
COc1ccc(S(=O)(=O)Nc2ccc(F)c(F)c2)cc1Cl,,inactive: 0.965%
O=c1[nH]c(=S)c2n[nH]nc2[nH]1,,inactive: 12.5%
O=C(O)c1ccccc1CSc1nc2ccccc2o1,"inconclusive: 12.6 µM [inhibitor, single point]",
Cc1ccc(-c2nnc(Nc3ccccc3)c3ccccc23)cc1S(=O)(=O)N1CCOCC1,"inconclusive: 89.1 µM [inhibitor, single point]",
